{"source": "patent US7008961B1", "about": "“Composition and method for treating carcinoma” (priority 1995, dated 2006)", "key": {"[1]": {"test_system": "LNCaP", "experiment": "Rh-123 retention by flow cytometry, LNCaP", "assay_type": "cell-based, human"}, "[2]": {"test_system": "NPF-209 normal prostate fibroblast", "experiment": "Rh-123 retention by flow cytometry, NPF-209", "assay_type": "cell-based, human"}}, "data": [{"compound": "COC(=O)c1ccccc1-c1c2ccc(=N)cc-2oc2cc(N)ccc12.Cl", "note": "[Rh-123, methyl o-(6-amino-3-imino-3H-xanthen-9-yl) benzoate monohydrochloride]", "values": [{"measurement": "% Retention of Rh-123", "setting": "[1]; LNCaP Population 1, 24 hours in dye-free medium after 1 hour labeling with 10 μg/ml", "result": 24, "unit": "%"}, {"measurement": "% Retention of Rh-123", "setting": "[1]; LNCaP Population 2, 24 hours in dye-free medium after 1 hour labeling with 10 μg/ml", "result": 64, "unit": "%"}, {"measurement": "Rh-123 taken up that was lost", "setting": "[2]; NPF cells, within 24 hours following removal of the drug", "result": "over 90%"}, {"measurement": "% Retention of Rh-123", "setting": "[2]; NPF-209, 24 hours in dye-free medium after 1 hour labeling with 10 μg/ml", "result": 9, "unit": "%"}]}]}
